Reference: US20180313836A1
No constants are given. Whether binding was seen depends on the method and setting. In cells and extracts the contact can be indirect. Some results given as binding are weak or reduced against the parent protein; the word gives no strength. Tags and fused reporters may be left off the sequences shown.

T1: HDAC6
T1 sequence: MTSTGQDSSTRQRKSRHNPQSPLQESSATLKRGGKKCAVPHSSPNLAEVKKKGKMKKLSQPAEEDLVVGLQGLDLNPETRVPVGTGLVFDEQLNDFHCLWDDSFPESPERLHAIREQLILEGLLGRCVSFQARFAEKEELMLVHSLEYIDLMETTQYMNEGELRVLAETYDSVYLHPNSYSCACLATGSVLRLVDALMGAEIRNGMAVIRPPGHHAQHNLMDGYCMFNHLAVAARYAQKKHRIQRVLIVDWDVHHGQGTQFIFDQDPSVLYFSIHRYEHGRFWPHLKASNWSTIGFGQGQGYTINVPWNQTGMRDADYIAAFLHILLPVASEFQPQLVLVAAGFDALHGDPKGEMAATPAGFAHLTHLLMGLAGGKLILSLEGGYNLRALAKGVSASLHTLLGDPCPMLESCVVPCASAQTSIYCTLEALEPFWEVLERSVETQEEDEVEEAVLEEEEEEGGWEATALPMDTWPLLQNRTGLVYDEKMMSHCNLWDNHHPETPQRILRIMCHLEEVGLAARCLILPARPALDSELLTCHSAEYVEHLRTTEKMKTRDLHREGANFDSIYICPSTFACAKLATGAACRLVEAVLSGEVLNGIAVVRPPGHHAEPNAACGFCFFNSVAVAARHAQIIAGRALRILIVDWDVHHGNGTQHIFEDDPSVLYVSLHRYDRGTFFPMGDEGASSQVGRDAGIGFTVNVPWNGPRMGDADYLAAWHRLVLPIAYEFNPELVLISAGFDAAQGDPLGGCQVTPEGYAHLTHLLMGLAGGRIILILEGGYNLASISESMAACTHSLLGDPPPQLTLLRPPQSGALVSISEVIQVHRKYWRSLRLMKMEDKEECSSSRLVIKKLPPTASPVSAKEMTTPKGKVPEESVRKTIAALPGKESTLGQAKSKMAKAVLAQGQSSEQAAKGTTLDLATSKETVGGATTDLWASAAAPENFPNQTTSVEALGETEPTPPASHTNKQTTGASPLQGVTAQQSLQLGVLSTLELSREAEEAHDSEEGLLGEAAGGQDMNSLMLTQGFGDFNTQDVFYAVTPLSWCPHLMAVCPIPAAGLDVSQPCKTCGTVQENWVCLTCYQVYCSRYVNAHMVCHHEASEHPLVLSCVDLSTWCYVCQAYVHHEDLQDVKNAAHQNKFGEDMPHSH


The binders below were run against T1, HDAC6 (assay: co-immunoprecipitation from NSC-34 cells expressing MFN2-V5: IP HDAC6, blot V5).

| Binder | binding |
| --- | --- |
| WT (MFN2-V5) (protein, not shown: small tags and cut ends) MSLLFSRCNSIVTVKKNKRHMAEVNASPLKHFVTAKKKINGIFEQLGAYIQESATFLEDTYRNAELDPVTTEEQVLDVKGYLSKVRGISEVLARRHMKVAFFGRTSNGKSTVINAMLWDKVLPSGIGHTTNCFLRVEGTDGHEAFLLTEGSEEKRSAKTVNQLAHALHQDKQLHAGSLVSVMWPNSKCPLLKDDLVLMDSPGIDVTTELDSWIDKFCLDADVFVLVANSESTLMQTEKHFFHKVSERLSRPNIFILNNRWDASASEPEYMEEVRRQHMERCTSFLVDELGVVDRSQAGDRIFFVSAKEVLNARIQKAQGMPEGGGALAEGFQVRMFEFQNFERRFEECISQSAVKTKFEQHTVRAKQIAEAVRLIMDSLHMAAREQQVYCEEMREERQDRLKFIDKQLELLAQDYKLRIKQITEEVERQVSTAMAEEIRRLSVLVDDYQMDFHPSPVVLKVYKNELHRHIEEGLGRNMSDRCSTAITNSLQTMQQDMIDGLKPLLPVSVRSQIDMLVPRQCFSLNYDLNCDKLCADFQEDIEFHFSLGWTMLVNRFLGPKNSRRALMGYNDQVQRPIPLTPANPSMPPLPQGSLTQEEFMVSMVTGLASLTSRTSMGILVVGGVVWKAVGWRLIALSFGLYGLLYVYERLTWTTKAKERAFKRQFVEHASEKLQLVISYTGSNCSHQVQQELSGTFAHLCQQVDVTRENLEQEIAAMNKKIEVLDSLQSKAKLLRNKAGWLDSELNMFTHQYLQPSR | binds |
| R280H (MFN2-V5) (protein, not shown: small tags and cut ends) MSLLFSRCNSIVTVKKNKRHMAEVNASPLKHFVTAKKKINGIFEQLGAYIQESATFLEDTYRNAELDPVTTEEQVLDVKGYLSKVRGISEVLARRHMKVAFFGRTSNGKSTVINAMLWDKVLPSGIGHTTNCFLRVEGTDGHEAFLLTEGSEEKRSAKTVNQLAHALHQDKQLHAGSLVSVMWPNSKCPLLKDDLVLMDSPGIDVTTELDSWIDKFCLDADVFVLVANSESTLMQTEKHFFHKVSERLSRPNIFILNNRWDASASEPEYMEEVRRQHMEHCTSFLVDELGVVDRSQAGDRIFFVSAKEVLNARIQKAQGMPEGGGALAEGFQVRMFEFQNFERRFEECISQSAVKTKFEQHTVRAKQIAEAVRLIMDSLHMAAREQQVYCEEMREERQDRLKFIDKQLELLAQDYKLRIKQITEEVERQVSTAMAEEIRRLSVLVDDYQMDFHPSPVVLKVYKNELHRHIEEGLGRNMSDRCSTAITNSLQTMQQDMIDGLKPLLPVSVRSQIDMLVPRQCFSLNYDLNCDKLCADFQEDIEFHFSLGWTMLVNRFLGPKNSRRALMGYNDQVQRPIPLTPANPSMPPLPQGSLTQEEFMVSMVTGLASLTSRTSMGILVVGGVVWKAVGWRLIALSFGLYGLLYVYERLTWTTKAKERAFKRQFVEHASEKLQLVISYTGSNCSHQVQQELSGTFAHLCQQVDVTRENLEQEIAAMNKKIEVLDSLQSKAKLLRNKAGWLDSELNMFTHQYLQPSR | binds |

These binders were tested against EEF1A1 (assay: co-immunoprecipitation from NSC-34 cells expressing V5-tagged synthetase: IP EEF1A1, blot V5).

| Binder | binding |
| --- | --- |
| E279D (GARS-V5) (enzyme, not shown: small tags and cut ends) MDGAGAEEVLAPLRLAVRQQGDLVRKLKEDKAPQVDVDKAVAELKARKRVLEAKELALQPKDDIVDRAKMEDTLKRRFFYDQAFAIYGGVSGLYDFGPVGCALKNNIIQTWRQHFIQEEQILEIDCTMLTPEPVLKTSGHVDKFADFMVKDVKNGECFRADHLLKAHLQKLMSDKKCSVEKKSEMESVLAQLDNYGQQELADLFVNYNVKSPITGNDLSPPVSFNLMFKTFIGPGGNMPGYLRPETAQGIFLNFKRLLEFNQGKLPFAAAQIGNSFRNDISPRSGLIRVREFTMAEIEHFVDPSEKDHPKFQNVADLHLYLYSAKAQVSGQSARKMRLGDAVEQGVINNTVLGYFIGRIYLYLTKVGISPDKLRFRQHMENEMAHYACDCWDAESKTSYGWIEIVGCADRSCYDLSCHARATKVPLVAEKPLKEPKTVNVVQFEPSKGAIGKAYKKDAKLVMEYLAICDECYITEMEMLLNEKGEFTIETEGKTFQLTKDMINVKRFQKTLYVEEVVPNVIEPSFGLGRIMYTVFEHTFHVREGDEQRTFFSFPAVVAPFKCSVLPLSQNQEFMPFVKELSEALTRHGVSHKVDDSSGSIGRRYARTDEIGVAFGVTIDFDTVNKTPHTATLRDRDSMRQIRAEISELPSIVQDLANGNITWADVEARYPLFEGQETGKKETIEE | binds |
| WT (V5-HARS) (enzyme, not shown: small tags and cut ends) AERAALEELVKLQGERVRGLKQQKASAELIEEEVAKLLKLKAQLGPDESKQKFVLKTPKGTRDYSPRQMAVREKVFDVIIRCFKRHGAEVIDTPVFELKETLMGKYGEDSKLIYDLKDQGGELLSLRYDLTVPFARYLAMNKLTNIKRYHIAKVYRRDNPAMTRGRYREFYQCDFDIAGNFDPMIPDAECLKIMCEILSSLQIGDFLVKVNDRRILDGMFAICGVSDSKFRTICSSVDKLDKVSWEEVKNEMVGEKGLAPEVADRIGDYVQQHGGVSLVEQLLQDPKLSQNKQALEGLGDLKLLFEYLTLFGIDDKISFDLSLARGLDYYTGVIYEAVLLQTPAQAGEEPLGVGSVAAGGRYDGLVGMFDPKGRKVPCVGLSIGVERIFSIVEQRLEALEEKIRTTETQVLVASAQKKLLEERLKLVSELWDAGIKAELLYKKNPKLLNQLQYCEEAGIPLVAIIGEQELKDGVIKLRSVTSREEVDVRREDLVEEIKRRTGQPLCIC | binds |
| P134H (V5-HARS) (enzyme, not shown: small tags and cut ends) AERAALEELVKLQGERVRGLKQQKASAELIEEEVAKLLKLKAQLGPDESKQKFVLKTPKGTRDYSPRQMAVREKVFDVIIRCFKRHGAEVIDTPVFELKETLMGKYGEDSKLIYDLKDQGGELLSLRYDLTVHFARYLAMNKLTNIKRYHIAKVYRRDNPAMTRGRYREFYQCDFDIAGNFDPMIPDAECLKIMCEILSSLQIGDFLVKVNDRRILDGMFAICGVSDSKFRTICSSVDKLDKVSWEEVKNEMVGEKGLAPEVADRIGDYVQQHGGVSLVEQLLQDPKLSQNKQALEGLGDLKLLFEYLTLFGIDDKISFDLSLARGLDYYTGVIYEAVLLQTPAQAGEEPLGVGSVAAGGRYDGLVGMFDPKGRKVPCVGLSIGVERIFSIVEQRLEALEEKIRTTETQVLVASAQKKLLEERLKLVSELWDAGIKAELLYKKNPKLLNQLQYCEEAGIPLVAIIGEQELKDGVIKLRSVTSREEVDVRREDLVEEIKRRTGQPLCIC | binds |
| D175E (V5-HARS) (enzyme, not shown: small tags and cut ends) AERAALEELVKLQGERVRGLKQQKASAELIEEEVAKLLKLKAQLGPDESKQKFVLKTPKGTRDYSPRQMAVREKVFDVIIRCFKRHGAEVIDTPVFELKETLMGKYGEDSKLIYDLKDQGGELLSLRYDLTVPFARYLAMNKLTNIKRYHIAKVYRRDNPAMTRGRYREFYQCEFDIAGNFDPMIPDAECLKIMCEILSSLQIGDFLVKVNDRRILDGMFAICGVSDSKFRTICSSVDKLDKVSWEEVKNEMVGEKGLAPEVADRIGDYVQQHGGVSLVEQLLQDPKLSQNKQALEGLGDLKLLFEYLTLFGIDDKISFDLSLARGLDYYTGVIYEAVLLQTPAQAGEEPLGVGSVAAGGRYDGLVGMFDPKGRKVPCVGLSIGVERIFSIVEQRLEALEEKIRTTETQVLVASAQKKLLEERLKLVSELWDAGIKAELLYKKNPKLLNQLQYCEEAGIPLVAIIGEQELKDGVIKLRSVTSREEVDVRREDLVEEIKRRTGQPLCIC | binds |
